Two sequences from publication PMC9457596 can be followed below.

Amino acid sequences for entries named in this document (tags omitted). Residues count along the entry.
UniProt P09651, 2-196: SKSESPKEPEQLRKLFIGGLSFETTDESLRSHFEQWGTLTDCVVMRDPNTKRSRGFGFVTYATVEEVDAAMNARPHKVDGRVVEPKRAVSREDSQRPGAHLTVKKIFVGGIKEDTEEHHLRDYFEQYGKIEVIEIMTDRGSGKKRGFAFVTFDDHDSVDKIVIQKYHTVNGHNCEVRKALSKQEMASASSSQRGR

Construct, isoform or probe ends are uncertain for at least one entry.

The target in the data set is hnRNP A1 (UniProt P09651). As to the kind of experiment: EMSA. To be noted: 150 mM KCl, 50 mM L-Arg, 50 mM L-Glu, 1.5 mM MgCl2, 0.2 mM EDTA, 0.05% BME, 20 mM Na2HPO4, pH 7.0, 4 C, 30 min; 0.5 uM RNA, 0.1-60 uM protein (Kd) or 60 uM (screen); recombinant protein; label: 5'-6-FAM.

With UAGGAUAGGAUAGGAUAGGA [C4], the Kd turned out to be 760 nM.

For the sequence UAGGUUAGGUUAGGUUAGGU [D4], the Kd worked out at 770 nM.
